Test results reported in PMC4357451.
Results are given in words; binding and its absence hold for the method and conditions named. Binding seen in cells or lysates may run through a third protein. Some binding calls cover weakened binding; strength is not graded here. Sequences can lack the tags named with a protein. Values belong to the molecule of their own block, whether it stands above or below them.

Chains of the proteins cited; added tags and fusions are not shown. Lines headed by an entry give the natural chain unless they say otherwise; changes in a name come on top. A line that says so, or that is headed by a name, gives the form on record, which may keep a tag or linker.
USP9X (ubiquitin-specific peptidase 9 X-linked), endogenous in HEK293T cells (Q93008-3, form named): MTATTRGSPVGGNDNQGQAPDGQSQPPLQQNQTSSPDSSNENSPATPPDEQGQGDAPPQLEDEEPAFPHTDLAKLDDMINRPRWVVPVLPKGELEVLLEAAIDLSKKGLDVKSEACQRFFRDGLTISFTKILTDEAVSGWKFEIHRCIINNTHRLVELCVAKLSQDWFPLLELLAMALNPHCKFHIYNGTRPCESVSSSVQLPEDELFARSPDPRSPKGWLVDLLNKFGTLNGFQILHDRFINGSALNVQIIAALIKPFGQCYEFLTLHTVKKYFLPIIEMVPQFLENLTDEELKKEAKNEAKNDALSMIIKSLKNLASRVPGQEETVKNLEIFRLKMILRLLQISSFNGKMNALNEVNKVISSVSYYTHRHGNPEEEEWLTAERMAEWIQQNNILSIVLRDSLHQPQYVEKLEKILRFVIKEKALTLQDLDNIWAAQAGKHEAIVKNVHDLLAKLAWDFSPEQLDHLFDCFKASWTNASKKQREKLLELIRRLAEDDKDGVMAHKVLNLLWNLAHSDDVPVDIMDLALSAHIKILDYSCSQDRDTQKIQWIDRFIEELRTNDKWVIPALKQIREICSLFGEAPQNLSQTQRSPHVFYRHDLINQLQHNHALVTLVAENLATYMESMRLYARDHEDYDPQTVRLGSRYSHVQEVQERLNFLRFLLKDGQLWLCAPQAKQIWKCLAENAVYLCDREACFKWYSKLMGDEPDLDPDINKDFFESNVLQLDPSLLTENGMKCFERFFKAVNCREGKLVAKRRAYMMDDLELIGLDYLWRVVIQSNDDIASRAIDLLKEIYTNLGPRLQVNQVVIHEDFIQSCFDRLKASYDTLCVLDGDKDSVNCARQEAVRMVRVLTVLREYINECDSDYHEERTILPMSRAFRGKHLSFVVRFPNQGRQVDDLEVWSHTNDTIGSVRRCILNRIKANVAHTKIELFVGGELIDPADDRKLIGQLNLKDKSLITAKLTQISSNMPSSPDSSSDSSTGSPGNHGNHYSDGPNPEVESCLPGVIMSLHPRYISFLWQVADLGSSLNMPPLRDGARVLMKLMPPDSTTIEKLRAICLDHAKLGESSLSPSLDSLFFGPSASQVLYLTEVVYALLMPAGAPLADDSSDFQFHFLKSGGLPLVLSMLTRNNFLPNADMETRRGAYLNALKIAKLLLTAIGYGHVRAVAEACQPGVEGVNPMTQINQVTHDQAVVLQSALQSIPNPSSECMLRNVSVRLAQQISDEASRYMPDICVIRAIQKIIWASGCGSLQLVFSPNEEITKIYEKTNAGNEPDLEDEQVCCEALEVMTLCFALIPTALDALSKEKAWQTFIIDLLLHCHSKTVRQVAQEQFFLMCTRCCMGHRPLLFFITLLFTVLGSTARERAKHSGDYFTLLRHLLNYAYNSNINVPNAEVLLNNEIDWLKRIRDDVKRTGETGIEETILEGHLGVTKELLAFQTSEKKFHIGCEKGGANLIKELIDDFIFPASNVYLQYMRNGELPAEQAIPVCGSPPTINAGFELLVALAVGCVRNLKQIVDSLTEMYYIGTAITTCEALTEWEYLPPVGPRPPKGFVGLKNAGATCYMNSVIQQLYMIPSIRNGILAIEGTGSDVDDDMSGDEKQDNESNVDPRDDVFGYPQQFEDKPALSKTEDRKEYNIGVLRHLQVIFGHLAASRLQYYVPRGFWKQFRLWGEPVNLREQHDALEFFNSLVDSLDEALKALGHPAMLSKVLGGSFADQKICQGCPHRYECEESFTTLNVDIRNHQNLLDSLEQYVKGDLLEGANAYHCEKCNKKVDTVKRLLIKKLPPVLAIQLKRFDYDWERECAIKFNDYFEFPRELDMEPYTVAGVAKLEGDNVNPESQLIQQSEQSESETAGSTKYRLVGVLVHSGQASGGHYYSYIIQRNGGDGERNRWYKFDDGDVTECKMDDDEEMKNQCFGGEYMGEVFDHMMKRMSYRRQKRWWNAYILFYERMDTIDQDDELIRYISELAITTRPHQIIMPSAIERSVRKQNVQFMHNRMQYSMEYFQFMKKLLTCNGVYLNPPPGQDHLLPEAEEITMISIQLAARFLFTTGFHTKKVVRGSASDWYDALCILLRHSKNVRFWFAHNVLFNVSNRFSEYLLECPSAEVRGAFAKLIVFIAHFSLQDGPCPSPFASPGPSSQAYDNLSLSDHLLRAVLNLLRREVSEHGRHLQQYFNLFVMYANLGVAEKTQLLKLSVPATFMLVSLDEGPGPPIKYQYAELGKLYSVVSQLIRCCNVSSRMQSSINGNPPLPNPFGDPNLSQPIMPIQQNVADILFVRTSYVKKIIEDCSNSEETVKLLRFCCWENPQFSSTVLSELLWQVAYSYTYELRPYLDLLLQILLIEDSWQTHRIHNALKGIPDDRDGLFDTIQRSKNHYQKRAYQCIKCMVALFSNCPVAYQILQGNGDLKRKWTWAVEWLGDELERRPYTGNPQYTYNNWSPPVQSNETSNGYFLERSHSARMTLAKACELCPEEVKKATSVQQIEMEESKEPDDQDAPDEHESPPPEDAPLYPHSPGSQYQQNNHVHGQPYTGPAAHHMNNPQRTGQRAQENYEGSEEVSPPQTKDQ

Experiments:
Test in all cases: co-IP; HEK293T transfected with Flag-tagged PRICKLE constructs, lysed in NET-100 after 48 h, anti-Flag beads overnight at 4°C; blots with anti-USP9X and anti-BCR for the endogenous proteins
[1] = target: T1, Flag-CPRICKLE1 (C-terminus of PRICKLE1, aa 314 to 831) (human) (UniProt Q96MT3)
T1 sequence: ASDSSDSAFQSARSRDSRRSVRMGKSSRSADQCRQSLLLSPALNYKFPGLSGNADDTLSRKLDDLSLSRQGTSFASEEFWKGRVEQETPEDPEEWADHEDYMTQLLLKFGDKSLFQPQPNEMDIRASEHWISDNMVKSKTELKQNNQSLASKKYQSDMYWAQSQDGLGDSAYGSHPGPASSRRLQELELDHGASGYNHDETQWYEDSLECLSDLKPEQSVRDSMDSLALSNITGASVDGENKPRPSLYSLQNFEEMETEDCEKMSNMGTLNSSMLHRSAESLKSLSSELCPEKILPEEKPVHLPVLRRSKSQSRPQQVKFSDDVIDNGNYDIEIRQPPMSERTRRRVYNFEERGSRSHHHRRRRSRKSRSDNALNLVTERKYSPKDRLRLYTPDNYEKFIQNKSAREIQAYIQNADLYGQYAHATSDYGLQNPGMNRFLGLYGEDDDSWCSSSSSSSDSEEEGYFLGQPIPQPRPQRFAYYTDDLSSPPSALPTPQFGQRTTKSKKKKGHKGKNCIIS

Flag-PRICKLE2 (human) = target: T2, Flag-PRICKLE2 (human) (UniProt Q7Z3G6)
T2 sequence: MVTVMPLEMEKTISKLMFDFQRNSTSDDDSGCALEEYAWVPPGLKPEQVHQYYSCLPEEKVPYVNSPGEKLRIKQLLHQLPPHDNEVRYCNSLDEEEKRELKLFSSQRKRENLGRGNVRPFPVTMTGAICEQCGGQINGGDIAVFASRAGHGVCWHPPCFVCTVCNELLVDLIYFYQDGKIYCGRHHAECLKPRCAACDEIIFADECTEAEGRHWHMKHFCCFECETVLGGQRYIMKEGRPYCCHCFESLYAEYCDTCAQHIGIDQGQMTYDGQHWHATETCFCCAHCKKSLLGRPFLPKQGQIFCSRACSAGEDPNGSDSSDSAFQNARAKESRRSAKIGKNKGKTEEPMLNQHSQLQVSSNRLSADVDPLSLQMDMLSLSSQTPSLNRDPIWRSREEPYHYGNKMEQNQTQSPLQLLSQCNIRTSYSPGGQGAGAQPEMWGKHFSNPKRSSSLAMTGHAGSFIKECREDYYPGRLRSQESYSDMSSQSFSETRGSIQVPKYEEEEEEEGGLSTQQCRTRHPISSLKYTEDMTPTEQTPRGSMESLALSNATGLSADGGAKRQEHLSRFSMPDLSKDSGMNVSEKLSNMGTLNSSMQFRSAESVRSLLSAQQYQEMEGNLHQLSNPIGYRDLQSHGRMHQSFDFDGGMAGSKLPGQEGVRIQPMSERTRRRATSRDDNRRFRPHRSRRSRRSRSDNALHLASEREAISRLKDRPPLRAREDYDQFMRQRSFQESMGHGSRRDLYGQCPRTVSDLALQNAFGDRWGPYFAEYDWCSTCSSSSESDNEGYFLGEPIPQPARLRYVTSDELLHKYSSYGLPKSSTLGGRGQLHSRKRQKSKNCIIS

[2] = target: T3, Flag-CPRICKLE2 (C-terminus of PRICKLE2, aa 318 to 844) (human) (UniProt Q7Z3G6)
T3 sequence: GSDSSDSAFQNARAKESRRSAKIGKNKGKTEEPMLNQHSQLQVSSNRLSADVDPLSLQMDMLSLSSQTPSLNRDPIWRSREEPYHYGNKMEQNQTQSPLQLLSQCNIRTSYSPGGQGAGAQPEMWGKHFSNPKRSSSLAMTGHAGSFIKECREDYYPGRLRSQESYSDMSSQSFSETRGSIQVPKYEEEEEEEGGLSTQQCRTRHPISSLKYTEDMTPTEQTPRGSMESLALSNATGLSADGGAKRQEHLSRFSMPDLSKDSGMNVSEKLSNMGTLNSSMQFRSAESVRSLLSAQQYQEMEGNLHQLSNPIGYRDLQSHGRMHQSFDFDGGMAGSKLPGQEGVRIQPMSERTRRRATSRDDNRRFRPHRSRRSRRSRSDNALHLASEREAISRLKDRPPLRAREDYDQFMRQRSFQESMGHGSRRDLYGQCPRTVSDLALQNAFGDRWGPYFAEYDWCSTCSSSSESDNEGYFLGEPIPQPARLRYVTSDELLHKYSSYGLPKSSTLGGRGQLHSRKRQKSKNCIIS

Flag-PRICKLE1 (human) = target: T4, Flag-PRICKLE1 (human) (UniProt Q96MT3)
T4 sequence: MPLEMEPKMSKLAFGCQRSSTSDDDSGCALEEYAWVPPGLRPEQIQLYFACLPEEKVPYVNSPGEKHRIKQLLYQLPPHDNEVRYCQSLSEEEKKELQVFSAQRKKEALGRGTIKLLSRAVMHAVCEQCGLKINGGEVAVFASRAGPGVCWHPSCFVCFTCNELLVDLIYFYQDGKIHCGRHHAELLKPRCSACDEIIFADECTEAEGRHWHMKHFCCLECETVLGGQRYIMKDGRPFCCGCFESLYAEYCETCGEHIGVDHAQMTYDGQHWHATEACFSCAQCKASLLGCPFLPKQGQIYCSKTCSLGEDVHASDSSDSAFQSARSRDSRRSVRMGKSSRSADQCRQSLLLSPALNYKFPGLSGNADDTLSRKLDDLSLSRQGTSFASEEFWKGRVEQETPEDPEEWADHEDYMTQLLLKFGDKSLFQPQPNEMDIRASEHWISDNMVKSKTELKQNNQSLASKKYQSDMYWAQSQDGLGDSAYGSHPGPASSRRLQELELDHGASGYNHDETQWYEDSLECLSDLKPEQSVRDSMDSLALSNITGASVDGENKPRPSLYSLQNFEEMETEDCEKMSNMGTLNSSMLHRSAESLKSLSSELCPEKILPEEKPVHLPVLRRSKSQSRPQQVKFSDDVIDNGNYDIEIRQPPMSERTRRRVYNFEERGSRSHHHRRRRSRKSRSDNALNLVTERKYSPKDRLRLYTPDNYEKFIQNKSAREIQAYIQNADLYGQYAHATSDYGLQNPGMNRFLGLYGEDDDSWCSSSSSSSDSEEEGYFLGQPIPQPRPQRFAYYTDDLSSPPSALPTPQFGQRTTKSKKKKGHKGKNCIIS

[3] = target: T5, Flag-NPRICKLE1 (N-terminus of PRICKLE1, aa 1 to 313) (human) (UniProt Q96MT3)
T5 sequence: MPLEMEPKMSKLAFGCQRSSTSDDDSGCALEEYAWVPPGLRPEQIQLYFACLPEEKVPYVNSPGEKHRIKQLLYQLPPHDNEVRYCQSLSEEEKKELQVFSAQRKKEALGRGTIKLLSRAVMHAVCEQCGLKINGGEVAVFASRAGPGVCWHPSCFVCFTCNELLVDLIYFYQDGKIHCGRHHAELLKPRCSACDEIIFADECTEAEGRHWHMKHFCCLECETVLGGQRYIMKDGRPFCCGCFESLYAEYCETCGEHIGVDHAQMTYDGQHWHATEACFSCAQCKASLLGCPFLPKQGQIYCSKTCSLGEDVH

[4] = target: T6, Flag-NPRICKLE2 (N-terminus of PRICKLE2, aa 1 to 317) (human) (UniProt Q7Z3G6)
T6 sequence: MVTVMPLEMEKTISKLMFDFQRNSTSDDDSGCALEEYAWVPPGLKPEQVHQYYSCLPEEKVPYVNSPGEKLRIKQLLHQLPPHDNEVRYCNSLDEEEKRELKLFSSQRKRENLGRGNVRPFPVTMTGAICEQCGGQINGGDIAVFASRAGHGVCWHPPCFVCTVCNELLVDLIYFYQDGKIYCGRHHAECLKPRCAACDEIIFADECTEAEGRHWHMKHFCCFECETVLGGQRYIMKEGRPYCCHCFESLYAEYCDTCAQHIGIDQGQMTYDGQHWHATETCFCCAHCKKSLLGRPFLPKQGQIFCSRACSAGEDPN

binding [1]: binds
binding (Flag-PRICKLE2 (human)): binds
binding [2]: binds
binding (Flag-PRICKLE1 (human)): binds
Molecule: USP9X (ubiquitin-specific peptidase 9 X-linked), endogenous in HEK293T cells (from UniProt Q93008-3 1-2570) (enzyme)

binding [3]: binds
binding [4]: binds
B1: BCR, endogenous in HEK293T cells (protein, UniProt P11274 1-1271)
chain: MVDPVGFAEAWKAQFPDSEPPRMELRSVGDIEQELERCKASIRRLEQEVNQERFRMIYLQTLLAKEKKSYDRQRWGFRRAAQAPDGASEPRASASRPQPAPADGADPPPAEEPEARPDGEGSPGKARPGTARRPGAAASGERDDRGPPASVAALRSNFERIRKGHGQPGADAEKPFYVNVEFHHERGLVKVNDKEVSDRISSLGSQAMQMERKKSQHGAGSSVGDASRPPYRGRSSESSCGVDGDYEDAELNPRFLKDNLIDANGGSRPPWPPLEYQPYQSIYVGGMMEGEGKGPLLRSQSTSEQEKRLTWPRRSYSPRSFEDCGGGYTPDCSSNENLTSSEEDFSSGQSSRVSPSPTTYRMFRDKSRSPSQNSQQSFDSSSPPTPQCHKRHRHCPVVVSEATIVGVRKTGQIWPNDGEGAFHGDADGSFGTPPGYGCAADRAEEQRRHQDGLPYIDDSPSSSPHLSSKGRGSRDALVSGALESTKASELDLEKGLEMRKWVLSGILASEETYLSHLEALLLPMKPLKAAATTSQPVLTSQQIETIFFKVPELYEIHKEFYDGLFPRVQQWSHQQRVGDLFQKLASQLGVYRAFVDNYGVAMEMAEKCCQANAQFAEISENLRARSNKDAKDPTTKNSLETLLYKPVDRVTRSTLVLHDLLKHTPASHPDHPLLQDALRISQNFLSSINEEITPRRQSMTVKKGEHRQLLKDSFMVELVEGARKLRHVFLFTDLLLCTKLKKQSGGKTQQYDCKWYIPLTDLSFQMVDELEAVPNIPLVPDEELDALKIKISQIKNDIQREKRANKGSKATERLKKKLSEQESLLLLMSPSMAFRVHSRNGKSYTFLISSDYERAEWRENIREQQKKCFRSFSLTSVELQMLTNSCVKLQTVHSIPLTINKEDDESPGLYGFLNVIVHSATGFKQSSNLYCTLEVDSFGYFVNKAKTRVYRDTAEPNWNEEFEIELEGSQTLRILCYEKCYNKTKIPKEDGESTDRLMGKGQVQLDPQALQDRDWQRTVIAMNGIEVKLSVKFNSREFSLKRMPSRKQTGVFGVKIAVVTKRERSKVPYIVRQCVEEIERRGMEEVGIYRVSGVATDIQALKAAFDVNNKDVSVMMSEMDVNAIAGTLKLYFRELPEPLFTDEFYPNFAEGIALSDPVAKESCMLNLLLSLPEANLLTFLFLLDHLKRVAEKEAVNKMSLHNLATVFGPTLLRPSEKESKLPANPSQPITMTDSWSLEVMSQVQVLLYFLQLEAIPAPDSKRQSILFSTEV
